Several values for one entry are separate records, joined by “and”; a condition that tells them apart may be missing. Identical values can stand only once. The campaign covered roughly 350,000 compounds. About 1,200 (0.34%) were called active. The shares of active, inactive and inconclusive entries below differ from those in the screen. Calls follow the shape of the dose curve; as a rule, active = well fitted inhibition curve with a large enough effect; inconclusive = small, poorly fitted or top-dose-only effect; inactive = no such curve, though single readings can be large or run the other way. Potencies of inconclusive entries are doubtful fits and often do not repeat. Some structures have more than one record in an assay (separate samples or runs), and their calls can disagree.
What follows are compounds tested against DNA repair nuclease/redox regulator APEX1 (Homo sapiens) (UniProt P27695) (assay: qHTS Assay for Inhibitors of the Human Apurinic/apyrimidinic Endonuclease 1 (APE1)). Conditions: recombinant APE1, TAMRA/BHQ-2 abasic DNA cleavage fluorescence; series mostly up to 65.8 µM.
How it was run: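 Compound pre-exposure to 0.75 nM APE1, 15 min at ambient temperature. Reaction initiated with 50 nM TAMRA/BHQ-2 THF substrate, read immediately in kinetic mode, 525 nm excitation, 598 nm emission.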
Also: nearly all actives have a fitted effect of over 55% in size.
Potency is read from the fitted curve at half-maximal effect.

Amino acid sequences for entries named in this document (tags omitted).
UniProt P27695, whole entry, looked up: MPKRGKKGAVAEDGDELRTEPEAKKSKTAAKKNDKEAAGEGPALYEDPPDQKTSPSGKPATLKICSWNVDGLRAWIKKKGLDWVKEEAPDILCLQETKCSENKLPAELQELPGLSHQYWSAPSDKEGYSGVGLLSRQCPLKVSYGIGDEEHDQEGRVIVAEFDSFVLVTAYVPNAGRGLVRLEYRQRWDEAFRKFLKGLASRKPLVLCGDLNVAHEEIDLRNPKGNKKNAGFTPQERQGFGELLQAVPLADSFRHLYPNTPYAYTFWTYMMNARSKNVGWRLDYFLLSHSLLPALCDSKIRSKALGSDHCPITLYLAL

Compound | Potency
O=C(Nc1nnc(C23CC4CC(CC(C4)C2)C3)s1)c1ccc(N2C(=O)CCC2=O)cc1 | active: 10 µM
Cc1ccc(-c2[nH]ncc2/C=N/n2c(COc3ccccc3)nc3ccccc3c2=O)cc1 | inactive
O=c1c2sccc2n(Cc2cc(=O)n3ccccc3n2)c(=O)n1-c1ccccc1 | inconclusive: 8.91 µM [inhibitor, single point]
COCCn1c(C)cc(C(=O)COC(=O)c2cc3c(s2)CCC3)c1C | active: 12.6 µM
CCc1ccc(C2=CC(c3cc(Br)ccc3F)n3ncnc3N2)cc1 (configuration not stated) | inconclusive: 7.08 µM [inhibitor, single point]
O=C(O)COc1ccccc1/C=N/NC(=O)CSc1nnc(-c2ccc(Cl)cc2)n1C1CCCCC1 | inconclusive: 5.01 µM [inhibitor, single point]
O=C1CC(N2CCN(c3cccc(C(F)(F)F)c3)CC2)C(=O)N1c1ccc(F)cc1 (configuration not stated) | inconclusive: 39.8 µM [inhibitor, single point]
COc1cc(/C=C2\SC(=O)N(CC(=O)Nc3cccc(C)c3)C2=O)cc([N+](=O)[O-])c1O | inactive
CC(NC(=O)C(Cc1ccccc1)NC(=O)c1ccccc1)C(=O)O (configuration not stated) | inconclusive: 44.7 µM [inhibitor, single point]
COc1cc(SC)ccc1C(=O)N1CCCCCC1 | inconclusive: 0.282 µM [inhibitor, full curve, poor fit]
Cn1c(SC/C=C/c2ccccc2)nnc1-c1cnccn1 | inconclusive: 0.794 µM [inhibitor, full curve, poor fit]
COc1ccc(OC)c(NC(=O)c2nnn(Cc3ccccc3C)c2N)c1 | inconclusive: 44.7 µM [inhibitor, single point]
CC/C=C\C/C=C\C/C=C\C/C=C\C/C=C\C/C=C\CCC(=O)O[C@H](COCCCCCCCCCCCCCCCC)COP(=O)([O-])OCC[N+](C)(C)C | inactive
Cc1[nH]c2ccccc2c1SCC(=O)N1CCOCC1 | inconclusive: 0.126 µM [inhibitor, full curve, poor fit]
CC(C)CC(=O)Nc1cc(C(F)(F)F)ccc1N1CCOCC1 | inconclusive: 4.47 µM [inhibitor, single point]
c1ccc(CCNc2ncnc3nc[nH]c23)cc1 | inactive
CCCCc1ccc(C(=O)NC(C(=O)O)C(C)C)cc1 (configuration not stated) | inconclusive: 0.0251 µM [inhibitor, full curve, poor fit]
COc1ccc(NC(=O)c2cccc(S(=O)(=O)N(C)c3ccccc3)c2)cn1 | inconclusive: 31.6 µM [inhibitor, partial curve, poor fit]
COc1ccc(OC)c(NC(=O)COc2coc(CN3CCc4ccccc43)cc2=O)c1 | inconclusive: 21.2 µM [inhibitor, single point]
Nc1sc2c([n+]1CCCS(=O)(=O)[O-])CCCC2 | inconclusive: 10 µM [inhibitor, partial curve]
Brc1cccc(C2Nc3cccc4cccc(c34)N2)c1 | inactive
Cc1cc(C)cc(N2CN=c3s/c(=C\c4ccco4)c(=O)n3C2)c1 | inconclusive: 35.5 µM [inhibitor, single point]
COc1ccc(NC(=O)c2ccc(NCCN3C(=O)CCC3=O)c([N+](=O)[O-])c2)cc1 | inconclusive: 31.6 µM [inhibitor, single point]

Compound | Potency
Oc1ccccc1N=Cc1c(O)ccc2oc3c(c12)CCCC3 | inconclusive: 17.8 µM [inhibitor, single point]
CCOc1cc(/C=C2\SC(=Nc3ccc(CC)cc3)NC2=O)ccc1OCC(=O)O | inconclusive: 29.9 µM [inhibitor, partial curve]
COc1ccc(/C=N/NC(=S)Nc2cc(C(F)(F)F)ccc2Cl)cc1 | inconclusive: 3.55 µM [inhibitor, single point]
C=CCc1cccc2cc(C(=O)N3CCN(c4ccccn4)CC3)c(=O)oc12 | inconclusive: 28.2 µM [inhibitor, partial curve, poor fit]
CC1CCCC(NC(=O)CN(C)CC(=O)Nc2cccc(F)c2)C1C (configuration not stated) | inactive
c1ccc2c(c1)OCC(c1nn3c(Cn4nnc5ccccc54)nnc3s1)O2 (configuration not stated) | inconclusive: 44.7 µM [inhibitor, single point]
c1ccc(N2CCN(Cc3ccnc4ccccc34)CC2)cc1 | inactive
CCCCOc1ccc(C(=O)Nc2cc(C)c(OCC(=O)N3CCOCC3)c(C)c2)cc1 | inactive
COc1ccc(NC(=S)Nc2ccc3nsnc3c2)cc1 | inactive
CNC[C@H](O)c1ccc(O)c(O)c1 | active: 3.55 µM and active: 7.94 µM
CC(=O)N(CN1C(=O)c2ccccc2C1=O)c1cccc(C)c1 | inactive
Cc1cccc(C)c1[N+](=O)[O-] | inactive
C#CCOCCOCCOCCNc1nc(N2CCOCC2)nc(N2CCN(C(=O)[C@H](Cc3cc4ccccc4[nH]3)n3cc([C@@H](N)C(C)CC)nn3)CC2)n1 (some centres not stated) | inconclusive: 31.6 µM [inhibitor, partial curve]
Cc1nn(Cc2nnc(SCC(=O)Nc3ccc(Cl)cc3)n2C)c(C)c1[N+](=O)[O-] | inconclusive: 0.0708 µM [inhibitor, full curve]
COc1ccccc1N(C(=O)c1snc(C(N)=O)c1N)C(C(=O)NC1CCCC1)c1ccc(N(C)C)cc1 (configuration not stated) | inactive
O=C1c2[nH]nc(-c3ccccc3O)c2C(c2ccc(F)cc2)N1Cc1ccco1 (configuration not stated) | inconclusive: 11.2 µM [inhibitor, partial curve, poor fit]
CC1=C(C(=O)OCc2ccccc2)C(c2ccc(Cl)cc2)NC(=O)N1CCCCCC(=O)O (configuration not stated) | inactive
CO[C@@H]1COC(=O)[C@H]2CCCN2C(=O)C/C=C\[C@@H](C)[C@H](OC)COC(=O)[C@H]2CCCN2C(=O)C/C=C\[C@H]1C | inconclusive: 3.16 µM [inhibitor, partial curve]
CCNC(=S)N1CCc2cc(OC)c(OC)cc2C1COc1ccc(OC)cc1 (configuration not stated) | inconclusive: 31.6 µM [inhibitor, single point]
Cc1ccc(NC(=O)CN2C(=O)S/C(=C\c3cc(Cl)c(OCC(=O)O)c(Cl)c3)C2=O)cc1 | active: 7.52 µM
COCCCNC(=S)N/N=C/c1ccc(O)cc1O | inactive
CC(=O)NC(CC(=O)NCC(c1ccco1)N(C)C)c1ccccc1 (configuration not stated) | inconclusive: 0.355 µM [inhibitor, partial curve, poor fit]
COc1ccc(C(=O)N=c2sccn2C)cc1 | inconclusive: 15.8 µM [inhibitor, partial curve, poor fit]

Compound | Potency
COC(=O)C1=C(C)NC2=C(C(=O)c3ccccc32)C1c1cccc(OC)c1 (configuration not stated) | inconclusive: 20 µM [inhibitor, single point]
C/C=C/C1Oc2ccc(OC)cc2N2C(=O)C(C)C(OCOC)C12 (configuration not stated) | inconclusive: 3.55 µM [inhibitor, single point]
C=CCN1CCc2nc(N)sc2CC1 | inconclusive: 31.6 µM [inhibitor, single point]
CC(C)c1cc(C(=O)Nc2cc(Br)ccc2O)no1 | inconclusive: 10 µM [inhibitor, partial curve, poor fit]
COC1=C(Nc2ccc(C)cc2)C(=O)c2ccccc2C1=O | inconclusive: 15.8 µM [inhibitor, partial curve]
COc1ccc(/C=C/C(=O)NC(=S)Nc2ccc(S(=O)(=O)Nc3cc(OC)ncn3)cc2)cc1 | inactive
CCOC(=O)c1sc2c(c1C)c(=O)n(CCO)c(=O)n2Cc1ccccc1 | inconclusive: 8.44 µM [inhibitor, partial curve, poor fit]
Cc1ccc(/C=N/Nc2nc3ccccc3s2)o1 | inactive
CSCC[C@H](NC(=O)[C@H](CC(C)C)NC(=O)CNC(=O)[C@H](Cc1ccc(O)cc1)NC(=O)[C@H](Cc1ccccc1)NC(=O)[C@H](CCC(N)=O)NC(=O)[C@H](CCC(N)=O)NC(=O)[C@@H]1CCCN1C(=O)[C@H](CCCCN)NC(=O)[C@@H]1CCCN1C(=O)[C@@H](N)CCCN=C(N)N)C(N)=O | inactive
Cc1ccc2nc(-c3ccc(NC(=O)c4ccco4)cc3)[nH]c2c1 | inconclusive: 44.7 µM [inhibitor, single point]
CCOC(=O)c1c(=O)n(O)c2ccc(C)cc2[n+]1[O-] | inconclusive: 39.8 µM [inhibitor, single point]
CCOC(=O)C1=C(C)N=c2s/c(=C\c3ccc(OCC(=O)O)cc3)c(=O)n2C1c1ccc(Cl)cc1 (configuration not stated) | active: 10.6 µM
COc1cccc(C2=CC(c3ccc(N(C)C)cc3)n3nnnc3N2)c1 (configuration not stated) | inconclusive: 44.7 µM [inhibitor, single point]
O=C(CN1CCCCCC1)NCc1ccccc1 | inconclusive: 3.98 µM [inhibitor, single point]
CC(C)N1CCC(N2CCN(C3CCCC3)CC2CCO)CC1 (configuration not stated) | inactive
Cc1ccc(CNc2ccc(N3CCN(C(=O)OC(C)(C)C)CC3=O)cc2)cc1 | inactive
Cc1[nH]c2ccccc2c1CCN(Cc1cccnc1)C(=S)Nc1ccc(F)cc1 | inconclusive: 22.4 µM [inhibitor, single point]
COc1cc(C(=O)NNC(=O)c2cc(-c3ccccc3)n[nH]2)cc(OC)c1C | inconclusive: 21.2 µM [inhibitor, partial curve]
C(=C\c1ccccc1)/CSc1ccccn1 | inactive
Cc1ccc(NC(=O)CCC(=O)c2cccs2)cc1 | inactive
COc1ccc(NC(=O)C2C(=O)N(CCO)C3(C)CC2c2ccccc2O3)cc1 (configuration not stated) | inconclusive: 7.08 µM [inhibitor, single point]

Source: PubChem BioAssay AID2517 (National Center for Advancing Translational Sciences (NCATS), 2010)
